In PMC10918171 one finds binding data, which are given here for 4 substances.

By UniProt entry, the sequences of proteins in these tests, tags left out. Where a name states a change or a piece, a line headed by the entry shows the natural chain unless it says otherwise.
UniProt Q9Y4G2: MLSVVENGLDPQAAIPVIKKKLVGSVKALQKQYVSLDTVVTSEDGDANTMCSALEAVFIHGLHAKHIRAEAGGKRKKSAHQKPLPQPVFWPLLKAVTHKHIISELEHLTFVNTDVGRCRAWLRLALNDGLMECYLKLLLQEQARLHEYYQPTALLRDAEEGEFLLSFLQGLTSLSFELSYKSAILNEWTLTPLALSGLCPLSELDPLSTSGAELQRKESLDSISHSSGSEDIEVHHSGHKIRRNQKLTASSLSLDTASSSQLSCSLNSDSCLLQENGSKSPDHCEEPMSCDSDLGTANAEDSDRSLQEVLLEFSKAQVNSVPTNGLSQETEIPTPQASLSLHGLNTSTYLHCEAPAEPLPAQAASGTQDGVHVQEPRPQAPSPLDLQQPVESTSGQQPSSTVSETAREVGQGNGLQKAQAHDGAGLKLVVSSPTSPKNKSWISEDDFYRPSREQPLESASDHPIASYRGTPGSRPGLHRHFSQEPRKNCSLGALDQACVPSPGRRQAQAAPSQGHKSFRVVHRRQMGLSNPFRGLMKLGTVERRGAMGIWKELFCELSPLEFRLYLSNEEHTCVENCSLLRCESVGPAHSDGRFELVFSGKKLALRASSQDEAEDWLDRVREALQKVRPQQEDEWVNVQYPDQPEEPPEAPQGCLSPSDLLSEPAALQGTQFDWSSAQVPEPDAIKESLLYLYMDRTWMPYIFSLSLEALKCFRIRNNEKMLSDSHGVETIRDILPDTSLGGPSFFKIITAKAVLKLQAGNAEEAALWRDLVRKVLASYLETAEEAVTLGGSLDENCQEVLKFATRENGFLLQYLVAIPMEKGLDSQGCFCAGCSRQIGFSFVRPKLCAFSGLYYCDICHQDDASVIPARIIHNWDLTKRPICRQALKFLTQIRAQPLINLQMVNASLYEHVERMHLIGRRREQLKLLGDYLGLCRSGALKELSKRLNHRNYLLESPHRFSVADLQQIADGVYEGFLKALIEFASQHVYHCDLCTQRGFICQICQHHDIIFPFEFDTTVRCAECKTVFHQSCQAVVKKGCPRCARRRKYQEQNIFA
UniProt P51149: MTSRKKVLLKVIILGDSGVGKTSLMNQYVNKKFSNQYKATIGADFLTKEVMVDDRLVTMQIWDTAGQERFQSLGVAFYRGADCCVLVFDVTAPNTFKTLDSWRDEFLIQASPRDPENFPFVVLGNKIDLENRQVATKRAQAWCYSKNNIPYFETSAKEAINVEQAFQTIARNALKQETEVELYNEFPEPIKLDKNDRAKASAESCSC
UniProt P0DTC3: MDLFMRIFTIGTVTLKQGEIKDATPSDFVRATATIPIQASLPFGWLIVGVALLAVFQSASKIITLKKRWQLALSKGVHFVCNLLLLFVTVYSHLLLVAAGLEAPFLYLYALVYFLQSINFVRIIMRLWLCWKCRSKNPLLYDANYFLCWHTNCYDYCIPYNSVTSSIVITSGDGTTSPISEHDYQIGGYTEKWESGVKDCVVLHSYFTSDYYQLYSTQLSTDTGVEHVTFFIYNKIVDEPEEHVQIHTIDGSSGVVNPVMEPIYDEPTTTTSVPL
UniProt Q92609: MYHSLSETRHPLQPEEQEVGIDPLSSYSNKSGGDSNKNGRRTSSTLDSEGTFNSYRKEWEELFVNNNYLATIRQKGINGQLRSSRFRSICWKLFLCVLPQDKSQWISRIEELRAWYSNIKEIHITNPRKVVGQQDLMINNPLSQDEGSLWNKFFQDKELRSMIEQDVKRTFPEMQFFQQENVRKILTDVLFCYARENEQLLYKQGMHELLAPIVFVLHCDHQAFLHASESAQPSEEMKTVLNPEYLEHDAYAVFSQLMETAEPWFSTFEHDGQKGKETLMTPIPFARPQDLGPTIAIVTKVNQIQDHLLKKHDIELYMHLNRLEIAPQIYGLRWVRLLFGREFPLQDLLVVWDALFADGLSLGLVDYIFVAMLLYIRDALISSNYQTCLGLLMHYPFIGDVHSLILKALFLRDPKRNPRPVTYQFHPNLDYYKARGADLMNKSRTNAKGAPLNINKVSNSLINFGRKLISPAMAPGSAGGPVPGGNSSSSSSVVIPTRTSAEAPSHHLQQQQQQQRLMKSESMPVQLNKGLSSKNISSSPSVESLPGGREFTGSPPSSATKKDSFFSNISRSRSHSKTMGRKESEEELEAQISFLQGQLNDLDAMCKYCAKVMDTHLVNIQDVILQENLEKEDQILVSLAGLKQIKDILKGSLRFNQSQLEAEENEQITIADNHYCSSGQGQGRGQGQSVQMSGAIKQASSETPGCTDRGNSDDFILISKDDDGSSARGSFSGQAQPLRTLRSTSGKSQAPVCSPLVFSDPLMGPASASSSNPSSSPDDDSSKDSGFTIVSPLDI

No constants are given. Whether binding was seen depends on the method and setting. In cells and extracts the contact can be indirect. Some binding calls cover weakened binding; strength is not graded here.

Common to all, as to test: co-IP
For one assay, the target named is T1, TBC1D15 (UniProt Q8TC07).
T1 sequence: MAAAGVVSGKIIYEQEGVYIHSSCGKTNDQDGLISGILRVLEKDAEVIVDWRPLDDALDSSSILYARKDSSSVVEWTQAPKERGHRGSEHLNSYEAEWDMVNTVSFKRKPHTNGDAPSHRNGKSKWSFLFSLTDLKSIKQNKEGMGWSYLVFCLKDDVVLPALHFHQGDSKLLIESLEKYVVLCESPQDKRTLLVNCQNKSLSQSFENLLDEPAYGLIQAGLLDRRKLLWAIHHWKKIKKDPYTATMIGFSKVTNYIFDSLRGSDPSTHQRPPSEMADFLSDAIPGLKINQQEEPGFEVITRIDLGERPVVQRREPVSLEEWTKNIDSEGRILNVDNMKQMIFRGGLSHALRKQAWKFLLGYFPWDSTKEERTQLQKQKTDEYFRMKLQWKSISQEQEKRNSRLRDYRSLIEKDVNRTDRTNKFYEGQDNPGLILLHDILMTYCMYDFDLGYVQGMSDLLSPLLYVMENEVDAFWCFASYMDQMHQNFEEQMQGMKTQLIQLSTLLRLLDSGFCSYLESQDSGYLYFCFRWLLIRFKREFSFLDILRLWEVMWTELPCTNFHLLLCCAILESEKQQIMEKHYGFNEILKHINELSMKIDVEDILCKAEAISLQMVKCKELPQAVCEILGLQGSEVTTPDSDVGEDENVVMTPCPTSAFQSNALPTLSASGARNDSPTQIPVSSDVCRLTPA

In another assay the target is FLAG-PLEKHM1 (UniProt Q9Y4G2).
Assay [1] has as its target T2, Vps39 as used in Supplementary Figs. S3J, S4J, S4K, S4L and as the link in Fig. 5H (UniProt Q96JC1).
T2 sequence: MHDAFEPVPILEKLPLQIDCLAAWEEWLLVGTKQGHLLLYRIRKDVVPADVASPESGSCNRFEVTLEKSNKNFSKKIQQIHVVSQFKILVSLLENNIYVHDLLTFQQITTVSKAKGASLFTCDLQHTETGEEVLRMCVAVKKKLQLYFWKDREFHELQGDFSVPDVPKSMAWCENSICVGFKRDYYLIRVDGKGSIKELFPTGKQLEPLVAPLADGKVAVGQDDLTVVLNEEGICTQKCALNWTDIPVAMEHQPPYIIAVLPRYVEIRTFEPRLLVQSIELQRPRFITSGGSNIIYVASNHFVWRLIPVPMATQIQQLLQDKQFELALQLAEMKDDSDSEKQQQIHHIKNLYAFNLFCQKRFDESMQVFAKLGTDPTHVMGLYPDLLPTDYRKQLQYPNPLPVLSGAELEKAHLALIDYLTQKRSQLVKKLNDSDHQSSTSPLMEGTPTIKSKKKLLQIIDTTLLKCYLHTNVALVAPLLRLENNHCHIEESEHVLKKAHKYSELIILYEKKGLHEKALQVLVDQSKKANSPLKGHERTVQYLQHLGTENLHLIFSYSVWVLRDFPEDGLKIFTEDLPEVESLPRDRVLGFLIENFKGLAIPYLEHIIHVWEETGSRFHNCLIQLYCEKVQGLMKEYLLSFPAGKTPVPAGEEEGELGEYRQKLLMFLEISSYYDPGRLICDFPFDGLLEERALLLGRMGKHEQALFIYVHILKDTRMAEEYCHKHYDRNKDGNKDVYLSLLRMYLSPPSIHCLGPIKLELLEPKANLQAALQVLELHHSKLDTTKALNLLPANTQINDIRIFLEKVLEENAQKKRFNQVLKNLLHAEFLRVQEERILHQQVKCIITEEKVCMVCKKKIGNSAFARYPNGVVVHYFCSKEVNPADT

In assay [2] the target is Rab7 of human cells, precipitated with anti-Rab7 antibodies or pulled down by GST-RILP (human (endogenous in HeLa, HEK293T, A549)) (UniProt P51149).

On to FLAG-Rab7 (from UniProt P51149 1-207), for which the binding result with TBC1D15 is recorded as “binds”. Turning to “SARS-CoV-2 ORF3a (WT) (from UniProt P0DTC3 1-275)”, the binding result in the assay with FLAG-PLEKHM1 was “binds”. As for “TBC1D5 as used in the co-IPs of Fig. 5H, 5J and Supplementary Figs. S4J, S4L (from UniProt Q92609 1-795)”, the binding entry in assay [1] is on record as “binds”.

Regarding “endogenous PLEKHM1 (from UniProt Q9Y4G2 1-1056)”, the binding entry in assay [2] is reported as “binds”.
